Measurements reported in the supplement of paper PMC10849652.
The other results are listed elsewhere or left out.

Amino acid sequences for entries named in this document (tags omitted). A change or cut given only in a name is not applied to a line headed by its entry.
UniProt Q96AC1: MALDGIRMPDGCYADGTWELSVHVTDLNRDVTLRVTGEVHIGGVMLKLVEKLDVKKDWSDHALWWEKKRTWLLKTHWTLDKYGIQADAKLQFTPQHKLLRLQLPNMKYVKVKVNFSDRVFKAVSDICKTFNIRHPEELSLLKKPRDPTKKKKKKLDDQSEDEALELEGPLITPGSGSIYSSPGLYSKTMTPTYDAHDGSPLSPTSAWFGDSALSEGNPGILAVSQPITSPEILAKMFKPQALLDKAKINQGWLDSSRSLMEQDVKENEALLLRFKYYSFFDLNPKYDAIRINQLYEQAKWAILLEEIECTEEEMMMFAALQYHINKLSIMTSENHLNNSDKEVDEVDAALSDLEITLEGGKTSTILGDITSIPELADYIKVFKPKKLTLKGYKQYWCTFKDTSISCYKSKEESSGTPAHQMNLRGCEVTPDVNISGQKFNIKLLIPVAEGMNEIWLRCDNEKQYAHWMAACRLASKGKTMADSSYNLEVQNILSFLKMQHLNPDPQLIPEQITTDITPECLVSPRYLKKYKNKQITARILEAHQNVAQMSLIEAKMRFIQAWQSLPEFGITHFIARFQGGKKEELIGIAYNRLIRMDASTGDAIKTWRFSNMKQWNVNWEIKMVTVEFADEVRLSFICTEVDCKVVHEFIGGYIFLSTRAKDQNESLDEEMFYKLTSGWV
UniProt P12318: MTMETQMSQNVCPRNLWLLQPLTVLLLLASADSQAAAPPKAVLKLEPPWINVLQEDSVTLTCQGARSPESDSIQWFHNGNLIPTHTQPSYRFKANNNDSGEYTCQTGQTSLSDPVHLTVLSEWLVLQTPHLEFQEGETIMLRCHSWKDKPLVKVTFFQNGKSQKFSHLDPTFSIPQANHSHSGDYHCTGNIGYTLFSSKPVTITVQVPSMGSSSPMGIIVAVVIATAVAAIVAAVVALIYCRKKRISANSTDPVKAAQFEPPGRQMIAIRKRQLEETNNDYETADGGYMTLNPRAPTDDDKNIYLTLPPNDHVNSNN
UniProt Q86XK2: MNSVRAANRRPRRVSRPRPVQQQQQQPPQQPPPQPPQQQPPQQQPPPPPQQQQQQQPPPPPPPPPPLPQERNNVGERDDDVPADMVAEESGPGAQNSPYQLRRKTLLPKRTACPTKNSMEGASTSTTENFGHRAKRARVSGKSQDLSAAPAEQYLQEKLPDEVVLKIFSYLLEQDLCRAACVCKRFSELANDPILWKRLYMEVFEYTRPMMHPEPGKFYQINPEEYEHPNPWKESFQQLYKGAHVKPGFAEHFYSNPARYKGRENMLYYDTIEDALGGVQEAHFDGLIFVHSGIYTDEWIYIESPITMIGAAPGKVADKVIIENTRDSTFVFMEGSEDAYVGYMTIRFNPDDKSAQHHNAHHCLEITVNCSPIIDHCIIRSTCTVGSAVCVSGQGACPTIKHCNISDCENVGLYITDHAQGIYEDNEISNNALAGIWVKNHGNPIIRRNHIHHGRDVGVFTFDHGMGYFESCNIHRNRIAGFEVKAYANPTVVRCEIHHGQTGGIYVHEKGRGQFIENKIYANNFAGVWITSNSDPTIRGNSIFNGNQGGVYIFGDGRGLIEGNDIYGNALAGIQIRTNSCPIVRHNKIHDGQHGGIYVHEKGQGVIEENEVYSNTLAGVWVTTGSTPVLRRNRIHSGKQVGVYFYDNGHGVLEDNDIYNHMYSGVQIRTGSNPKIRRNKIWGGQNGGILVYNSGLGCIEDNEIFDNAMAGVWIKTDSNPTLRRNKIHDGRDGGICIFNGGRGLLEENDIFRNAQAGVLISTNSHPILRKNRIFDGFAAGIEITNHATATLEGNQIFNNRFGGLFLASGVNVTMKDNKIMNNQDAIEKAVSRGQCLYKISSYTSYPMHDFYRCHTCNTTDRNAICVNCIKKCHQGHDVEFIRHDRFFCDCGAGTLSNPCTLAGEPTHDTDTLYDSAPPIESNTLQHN
UniProt Q13045: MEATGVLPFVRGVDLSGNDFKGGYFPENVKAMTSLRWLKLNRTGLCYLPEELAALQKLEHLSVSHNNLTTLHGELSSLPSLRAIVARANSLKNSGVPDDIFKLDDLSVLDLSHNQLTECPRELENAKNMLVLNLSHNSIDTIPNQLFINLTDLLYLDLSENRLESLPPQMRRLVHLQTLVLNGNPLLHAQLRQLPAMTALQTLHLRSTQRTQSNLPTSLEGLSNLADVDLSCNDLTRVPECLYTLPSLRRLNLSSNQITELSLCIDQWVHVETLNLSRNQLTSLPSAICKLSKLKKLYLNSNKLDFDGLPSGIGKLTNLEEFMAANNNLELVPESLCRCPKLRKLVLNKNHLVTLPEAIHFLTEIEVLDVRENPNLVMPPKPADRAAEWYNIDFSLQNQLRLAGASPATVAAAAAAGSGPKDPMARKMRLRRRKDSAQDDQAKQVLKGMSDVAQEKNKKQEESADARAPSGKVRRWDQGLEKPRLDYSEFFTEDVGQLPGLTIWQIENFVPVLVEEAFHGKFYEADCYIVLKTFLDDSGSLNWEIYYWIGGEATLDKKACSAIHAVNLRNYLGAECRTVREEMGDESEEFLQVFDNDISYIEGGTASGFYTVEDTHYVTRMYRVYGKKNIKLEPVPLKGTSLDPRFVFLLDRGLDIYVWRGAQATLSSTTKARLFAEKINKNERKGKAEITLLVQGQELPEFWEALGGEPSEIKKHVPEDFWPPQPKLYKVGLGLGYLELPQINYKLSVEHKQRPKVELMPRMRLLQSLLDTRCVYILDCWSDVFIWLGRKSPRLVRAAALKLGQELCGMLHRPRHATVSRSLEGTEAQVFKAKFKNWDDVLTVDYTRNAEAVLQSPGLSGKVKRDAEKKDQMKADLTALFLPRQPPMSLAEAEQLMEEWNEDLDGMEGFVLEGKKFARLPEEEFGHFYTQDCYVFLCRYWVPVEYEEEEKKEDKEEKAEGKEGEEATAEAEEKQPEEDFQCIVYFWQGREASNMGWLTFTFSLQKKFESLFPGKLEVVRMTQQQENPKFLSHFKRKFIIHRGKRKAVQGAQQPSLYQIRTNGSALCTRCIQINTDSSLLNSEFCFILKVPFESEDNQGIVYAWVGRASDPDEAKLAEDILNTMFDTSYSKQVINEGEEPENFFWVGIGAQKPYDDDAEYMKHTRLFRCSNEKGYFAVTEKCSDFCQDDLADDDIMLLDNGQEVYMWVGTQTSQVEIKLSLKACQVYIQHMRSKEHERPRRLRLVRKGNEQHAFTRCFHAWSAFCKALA
UniProt Q14153: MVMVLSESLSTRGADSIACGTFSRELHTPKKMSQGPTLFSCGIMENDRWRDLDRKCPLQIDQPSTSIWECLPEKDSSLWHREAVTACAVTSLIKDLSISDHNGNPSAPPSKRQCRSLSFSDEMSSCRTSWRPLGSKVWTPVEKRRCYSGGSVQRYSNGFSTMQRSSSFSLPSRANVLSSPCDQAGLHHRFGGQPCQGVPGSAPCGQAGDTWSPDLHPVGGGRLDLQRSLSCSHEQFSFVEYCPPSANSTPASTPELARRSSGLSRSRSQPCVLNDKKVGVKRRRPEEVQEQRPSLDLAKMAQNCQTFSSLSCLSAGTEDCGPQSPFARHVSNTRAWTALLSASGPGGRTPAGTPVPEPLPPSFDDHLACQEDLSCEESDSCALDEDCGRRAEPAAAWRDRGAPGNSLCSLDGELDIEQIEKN
UniProt Q8NFZ0: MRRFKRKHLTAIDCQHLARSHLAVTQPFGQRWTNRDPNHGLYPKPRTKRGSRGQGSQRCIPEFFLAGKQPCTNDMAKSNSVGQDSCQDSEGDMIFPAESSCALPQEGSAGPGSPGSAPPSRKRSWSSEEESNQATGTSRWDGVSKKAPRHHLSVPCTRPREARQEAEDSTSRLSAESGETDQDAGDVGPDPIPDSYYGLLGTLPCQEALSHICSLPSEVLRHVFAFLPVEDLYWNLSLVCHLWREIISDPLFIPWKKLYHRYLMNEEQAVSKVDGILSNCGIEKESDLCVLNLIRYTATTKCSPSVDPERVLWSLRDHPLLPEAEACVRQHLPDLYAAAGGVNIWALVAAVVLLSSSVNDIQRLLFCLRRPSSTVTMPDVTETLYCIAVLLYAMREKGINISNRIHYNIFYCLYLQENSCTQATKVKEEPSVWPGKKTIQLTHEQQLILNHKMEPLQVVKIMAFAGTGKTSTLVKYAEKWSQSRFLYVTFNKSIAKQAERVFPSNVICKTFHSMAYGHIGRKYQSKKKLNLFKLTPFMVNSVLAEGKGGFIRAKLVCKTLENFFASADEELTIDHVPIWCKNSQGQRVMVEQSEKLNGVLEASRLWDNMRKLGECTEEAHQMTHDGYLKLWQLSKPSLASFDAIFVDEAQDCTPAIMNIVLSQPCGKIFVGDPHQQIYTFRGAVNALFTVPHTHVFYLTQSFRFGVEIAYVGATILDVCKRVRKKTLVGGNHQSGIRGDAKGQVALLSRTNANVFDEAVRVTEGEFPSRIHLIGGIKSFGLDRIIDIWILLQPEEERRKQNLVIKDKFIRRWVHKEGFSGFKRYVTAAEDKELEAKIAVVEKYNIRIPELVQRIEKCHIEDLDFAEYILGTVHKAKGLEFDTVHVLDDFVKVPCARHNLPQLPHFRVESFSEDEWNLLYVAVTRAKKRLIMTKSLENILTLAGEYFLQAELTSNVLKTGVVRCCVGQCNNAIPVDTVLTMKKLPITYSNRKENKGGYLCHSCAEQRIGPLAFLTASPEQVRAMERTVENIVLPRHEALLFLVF
UniProt Q86WN1: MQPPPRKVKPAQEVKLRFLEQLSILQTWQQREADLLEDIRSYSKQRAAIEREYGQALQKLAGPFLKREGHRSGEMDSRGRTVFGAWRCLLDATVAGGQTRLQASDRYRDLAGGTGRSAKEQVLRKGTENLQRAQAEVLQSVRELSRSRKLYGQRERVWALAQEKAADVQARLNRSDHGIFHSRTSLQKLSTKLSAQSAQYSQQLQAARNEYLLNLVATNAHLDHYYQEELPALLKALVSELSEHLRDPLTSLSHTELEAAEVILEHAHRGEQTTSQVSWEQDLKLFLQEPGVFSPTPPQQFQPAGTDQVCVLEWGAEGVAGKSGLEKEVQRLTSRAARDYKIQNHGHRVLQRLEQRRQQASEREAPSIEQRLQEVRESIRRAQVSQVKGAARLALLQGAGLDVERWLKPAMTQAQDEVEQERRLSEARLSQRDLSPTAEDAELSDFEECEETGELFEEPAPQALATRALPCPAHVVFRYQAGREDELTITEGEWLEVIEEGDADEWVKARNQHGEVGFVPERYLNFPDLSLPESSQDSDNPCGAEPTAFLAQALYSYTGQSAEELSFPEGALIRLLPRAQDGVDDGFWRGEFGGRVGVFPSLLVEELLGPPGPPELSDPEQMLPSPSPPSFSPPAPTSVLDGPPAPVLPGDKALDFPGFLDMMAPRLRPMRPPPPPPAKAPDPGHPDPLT
UniProt O14526: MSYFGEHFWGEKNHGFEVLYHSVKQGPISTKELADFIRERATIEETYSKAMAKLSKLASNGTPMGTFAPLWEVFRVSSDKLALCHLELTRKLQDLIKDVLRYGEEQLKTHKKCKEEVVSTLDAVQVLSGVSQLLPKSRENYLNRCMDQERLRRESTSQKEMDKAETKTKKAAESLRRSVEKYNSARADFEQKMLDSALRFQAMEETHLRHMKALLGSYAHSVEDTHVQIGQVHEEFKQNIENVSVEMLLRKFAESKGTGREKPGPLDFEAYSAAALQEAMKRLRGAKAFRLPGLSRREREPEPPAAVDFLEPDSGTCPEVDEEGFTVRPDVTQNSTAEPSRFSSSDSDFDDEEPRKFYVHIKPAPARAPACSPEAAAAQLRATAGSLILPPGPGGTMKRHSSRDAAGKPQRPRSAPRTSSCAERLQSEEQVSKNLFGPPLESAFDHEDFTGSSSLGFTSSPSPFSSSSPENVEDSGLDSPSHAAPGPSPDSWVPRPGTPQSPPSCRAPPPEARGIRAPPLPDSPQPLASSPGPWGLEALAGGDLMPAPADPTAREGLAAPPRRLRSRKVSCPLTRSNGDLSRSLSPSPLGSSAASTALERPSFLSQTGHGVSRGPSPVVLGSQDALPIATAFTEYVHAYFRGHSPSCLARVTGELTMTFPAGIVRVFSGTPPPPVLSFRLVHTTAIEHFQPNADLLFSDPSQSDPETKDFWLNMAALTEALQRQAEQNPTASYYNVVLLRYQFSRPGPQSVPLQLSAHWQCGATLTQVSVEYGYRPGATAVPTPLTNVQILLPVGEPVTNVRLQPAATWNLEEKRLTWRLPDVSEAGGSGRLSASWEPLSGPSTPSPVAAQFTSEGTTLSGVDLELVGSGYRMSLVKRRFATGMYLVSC
UniProt Q8TAV0: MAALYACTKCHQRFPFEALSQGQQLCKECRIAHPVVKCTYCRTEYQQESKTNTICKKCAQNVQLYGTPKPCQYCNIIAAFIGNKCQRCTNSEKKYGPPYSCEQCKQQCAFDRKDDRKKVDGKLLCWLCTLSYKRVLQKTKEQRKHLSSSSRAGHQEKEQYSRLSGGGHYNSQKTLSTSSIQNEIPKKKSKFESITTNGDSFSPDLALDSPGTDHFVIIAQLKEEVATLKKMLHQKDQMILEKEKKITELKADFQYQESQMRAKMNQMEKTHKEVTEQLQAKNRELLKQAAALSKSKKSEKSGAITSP

Tests used:
Assay in all cases: log2 fold change, soluble protein after heating vs DMSO (PISA); higher = thermal stabilisation; K562 cells, 10 uM, 30 min; active = over 0.2 and 3.5 SD of the protein, either way, in both replicates (recomputed)
[1] = compound: CC1=C2C(=CC=C1)N=C(N(C2=O)C3=CC=CC=C3C)CN4C=NC5=C(N=CN=C54)N
In short: (§1)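 Soluble protein was defined as the supernatant after 21,000xg for 90 min. It came from K562 cells at 2×10^6 cells/mL given 10 μM compound for 30 min, heated in aliquots for 3 min across 48°C-58°C, pooled, and extracted in PBS with 0.5% NP-40 at 4°C, and was quantified by TMTpro 16plex LC-MS/MS with equalised channel sums. Thermal stability against control samples, from duplicates, is reported as log2 fold change.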

[2] = compound: Cc1sc2c(c1C)C(c1ccc(Cl)cc1)=N[C@@H](CC(=O)OC(C)(C)C)c1nnc(C)n1-2
In short: as §1

[3] = compound: CC1=C(SC2=C1C(=N[C@H](C3=NN=C(N32)C)CC(=O)N)C4=CC=C(C=C4)Cl)C
In short: as §1

[4] = compound: c1ccc([C@@H]2C[C@H]2NC2CCNCC2)cc1
In short: as §1

[5] = compound: C1=CC=C(C=C1)[C@H](COC2=CC3=C(C=C2)NC(=O)N3)NC(=O)C4=CC=CN(C4=O)CC5=CC(=C(C=C5)F)F
In short: as §1

| Target | log2 fold change [1] | log2 fold change [2] | log2 fold change [3] | log2 fold change [4] | log2 fold change [5] |
| --- | --- | --- | --- | --- | --- |
| FAT4 (UniProt Q6V0I7) | inactive: 0.363 | inactive: 0.106 | – | – | – |
| FAM83A (UniProt Q86UY5) | inactive: 0.17 | inactive: 0.071 | – | – | – |
| FCF1 (UniProt Q9Y324) | inactive: -0.362 | inactive: 0.248 | – | – | – |
| FNDC3A (UniProt Q9Y2H6) | – | inactive: 0.272 | – | – | – |
| FBXW11 (UniProt Q9UKB1) | inactive: 0.022 | inactive: -0.183 | inactive: 0.145 | inactive: -0.021 | – |
| FLT1 (UniProt P17948) | inactive: 0.298 | – | – | – | – |
| FAM53C (UniProt Q9NYF3) | – | inactive: -0.177 | inactive: 0.083 | inactive: 0.167 | – |
| FERMT2 isoform 3 (UniProt Q96AC1) | – | inactive: -0.042 | inactive: -0.004 | inactive: 0.015 | inactive: 0.033 |
| FBXL4 (UniProt Q9UKA2) | inactive: 0.061 | – | – | – | – |
| FARP2 (UniProt O94887) | inactive: 0.032 | inactive: 0.12 | inactive: -0.084 | inactive: 0.087 | – |
| FCGR2A (UniProt P12318) | inactive: 0.1 | inactive: -0.02 | – | – | inactive: -0.091 |
| FBXO11 isoform 5 (UniProt Q86XK2) | – | inactive: 0.349 | – | – | – |
| FLII isoform 2 (UniProt Q13045) | – | inactive: -0.037 | inactive: 0.011 | inactive: -0.138 | – |
| FAM53B (UniProt Q14153) | inactive: 0.134 | – | – | – | – |
| FIZ1 (UniProt Q96SL8) | inactive: -0.097 | – | inactive: -0.297 | inactive: 0.044 | – |
| FAM222B (UniProt Q8WU58) | – | inactive: 0.06 | – | – | – |
| FMR1 (UniProt Q06787) | – | – | inactive: -0.237 | inactive: -0.038 | – |
| FBRSL1 (UniProt Q9HCM7) | – | inactive: 0.076 | – | – | – |
| FLCN (UniProt Q8NFG4) | inactive: 0.006 | inactive: -0.085 | inactive: 0.13 | inactive: -0.103 | – |
| FBRS (UniProt J3KNZ9) | inactive: 0.053 | – | inactive: 0.107 | inactive: -0.175 | – |
| FNIP1 (UniProt Q8TF40) | – | inactive: 0.05 | inactive: 0.168 | inactive: -0.111 | inactive: -0.084 |
| FBH1 isoform 2 (UniProt Q8NFZ0) | inactive: 0.03 | inactive: 0.042 | – | – | inactive: -0.124 |
| FCHSD1 (UniProt Q86WN1) | – | – | inactive: -0.154 | inactive: 0.222 | – |
| FCHO1 (UniProt O14526) | inactive: 0.125 | inactive: 0.022 | inactive: 0.013 | inactive: -0.065 | – |
| FAM76A isoform 3 (UniProt Q8TAV0) | inactive: -0.113 | inactive: 0.081 | – | – | inactive: -0.095 |
| FAM210B (UniProt Q96KR6) | inactive: -0.08 | – | inactive: -0.018 | inactive: 0.015 | inactive: 0.022 |

Single records, as listed above.
FIZ1 (UniProt Q96SL8) is listed with log2 fold change [1]: inactive: -0.097; log2 fold change [3]: inactive: -0.297; log2 fold change [4]: inactive: 0.044
FBXW11 (UniProt Q9UKB1) is listed with log2 fold change [1]: inactive: 0.022; log2 fold change [2]: inactive: -0.183; log2 fold change [3]: inactive: 0.145; log2 fold change [4]: inactive: -0.021
